Laboratory results from paper PMC6785866.
Results are given in words; binding and its absence hold for the method and conditions named. Binding seen in cells or lysates may run through a third protein. Some entries that bind do so weakly or less than the wild type.

Sequences of proteins named here, by UniProt entry; tags and fusion partners are left off.
UniProt O02718: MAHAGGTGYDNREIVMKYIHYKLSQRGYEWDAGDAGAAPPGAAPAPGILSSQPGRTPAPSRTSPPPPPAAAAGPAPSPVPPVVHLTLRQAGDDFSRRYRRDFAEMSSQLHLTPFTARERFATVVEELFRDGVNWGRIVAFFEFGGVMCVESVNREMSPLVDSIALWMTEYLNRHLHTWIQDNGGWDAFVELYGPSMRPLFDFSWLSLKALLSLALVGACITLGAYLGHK
UniProt Q4A1L4: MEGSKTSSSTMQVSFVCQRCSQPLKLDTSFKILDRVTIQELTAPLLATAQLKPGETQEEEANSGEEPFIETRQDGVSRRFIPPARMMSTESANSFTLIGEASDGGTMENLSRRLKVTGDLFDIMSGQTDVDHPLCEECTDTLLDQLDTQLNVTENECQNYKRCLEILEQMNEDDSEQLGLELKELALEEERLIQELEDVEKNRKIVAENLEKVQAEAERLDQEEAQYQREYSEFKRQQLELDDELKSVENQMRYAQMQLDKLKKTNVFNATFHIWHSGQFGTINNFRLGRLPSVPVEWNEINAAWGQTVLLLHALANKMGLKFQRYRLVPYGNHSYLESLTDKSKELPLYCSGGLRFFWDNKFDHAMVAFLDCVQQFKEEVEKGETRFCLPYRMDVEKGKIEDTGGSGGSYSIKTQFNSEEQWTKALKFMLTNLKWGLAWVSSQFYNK

Molecular target: Bcl-2 (bovine (endogenous in MDBK)) (UniProt O02718)
Experiment: co-IP; reciprocal immunoprecipitation of 500 ug extracted total cellular protein with Beclin 1 or Bcl-2 antibodies (Pierce Co-Immunoprecipitation Kit), Western blot for Beclin 1 and Bcl-2; cells uninfected or infected with BEFV (MOI 1, 6 h)

For Beclin 1 (from UniProt Q4A1L4 1-448), the binding was “binds”.
